Experimental data: PubChem BioAssay AID1224830 (NIAID, 2016)
The deposit covers about 18,000 reagents; this is an unselected part. About 2,900 of them (16%) were called active. 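Calls are made per well; low scores hint the gene aids the LPS response, high scores that it dampens it.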 Entries without a mark were called inactive. Repeated entries: four replicate wells of each siRNA pool.

Screen: 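Host factors that control LPS-induced TNF expression in human macrophages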 (primary screen)
System: human THP-1 monocytic leukaemia cells, TNF dual-luciferase reporter clone, PMA-differentiated to macrophage-like cells
Reagent: siRNA pool against human genes, 50 nM
Timing: LPS for 4 h, given about 3 days after siRNA transfection
Conditions: bacterial LPS (TLR4 ligand), 10 ng/ml
Read-out: 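Ratio of firefly to renilla light, scaled to the plate median and expressed as a robust z-score per replicate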
Direction: TNF reporter robust z-score: higher = stronger TNF reporter response to LPS
Call rule: 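Each well counts as active if its z-score is over 2.8 or under -1.5; controls are left without a call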

target | TNF reporter robust z-score
STX12 | -0.61
STX12 | 0.06
STX12 | -0.81
STX12 | -0.04
CDH18 | -0.92
CDH18 | -1.49
CDH18 | -0.75
CDH18 | -1.01
AADACL2 | -0.18
AADACL2 | 0.17
AADACL2 | 0.39
AADACL2 | -0.1
OR5T3 | -1.16
OR5T3 | -0.9
OR5T3 | -0.99
OR5T3 | -1.29
CMTM5 | -0.99
CMTM5 | -0.7
CMTM5 | -0.58
CMTM5 | -0.6
FGG | 0.15
FGG | -0.04
FGG | 0.14
FGG | -0.03
PRKX | -1.44
PRKX | -1.71 (active)
PRKX | -1.41
PRKX | -1.69 (active)
GHRH | -2.04 (active)
GHRH | -1.67 (active)
GHRH | -1.82 (active)
GHRH | -1.88 (active)
MAST3 | -1.99 (active)
MAST3 | -0.72
MAST3 | -0.74
MAST3 | -0.89
KRTAP4-4 | -0.74
KRTAP4-4 | 0.92
KRTAP4-4 | 0.64
KRTAP4-4 | -0.52
OLFM4 | -0.87
OLFM4 | -0.17
OLFM4 | -0.63
OLFM4 | 0.14
VENTX | 0.44
VENTX | 0.16
VENTX | -0.32
VENTX | -0.22
TIGD1 | 0.55
TIGD1 | 3.02 (active)
TIGD1 | 1.79
TIGD1 | 2.35
TRIM4 | 0
TRIM4 | -0.16
TRIM4 | -1.11
TRIM4 | -1.48
YAP1 | -1.27
YAP1 | -0.96
YAP1 | -0.82
YAP1 | -1.19
SRSF5 | -0.38
SRSF5 | -0.78
SRSF5 | -0.92
SRSF5 | -0.91
CNIH4 | -1.08
CNIH4 | 0.1
CNIH4 | 1.33
CNIH4 | 0.78
TRIM50 | -0.96
TRIM50 | -0.18
TRIM50 | -1.98 (active)
TRIM50 | -0.2
ANKRD17 | 0
ANKRD17 | 0.87
ANKRD17 | 1.36
ANKRD17 | 1.57
RGS19 | -0.63
RGS19 | -0.4
RGS19 | -0.88
RGS19 | 0.17
LRMDA | -0.03
LRMDA | -0.53
LRMDA | -0.07
LRMDA | -0.54
ZSCAN26 | -1.54 (active)
ZSCAN26 | -0.82
ZSCAN26 | -0.73
ZSCAN26 | -1.06
CBY1 | -0.11
CBY1 | 0.15
CBY1 | -0.09
CBY1 | -0.46
NOB1 | 0.08
NOB1 | -0.34
NOB1 | 0.19
NOB1 | 0.14
MRPL12 | -1
MRPL12 | 1.76
MRPL12 | 2.09
MRPL12 | 1.37
CPNE7 | -0.82
CPNE7 | 0.59
CPNE7 | 0.49
CPNE7 | 1.64
IGSF10 | 0.34
IGSF10 | -0.15
IGSF10 | -1.02
IGSF10 | -0.74
ANKRD13D | -0.15
ANKRD13D | 0.04
ANKRD13D | -0.75
ANKRD13D | -0.47

15 neighbouring entries from above:
target | TNF reporter robust z-score
TRIM4 | -1.48
YAP1 | -1.27
YAP1 | -0.96
YAP1 | -0.82
YAP1 | -1.19
SRSF5 | -0.38
SRSF5 | -0.78
SRSF5 | -0.92
SRSF5 | -0.91
CNIH4 | -1.08
CNIH4 | 0.1
CNIH4 | 1.33
CNIH4 | 0.78
TRIM50 | -0.96
TRIM50 | -0.18
